The text below walks through data of the supplement of paper PMC11006884.

Protein sequences, listed by entry. Tags and fused reporters are not part of them. Lines headed by an entry give the natural chain unless they say otherwise; changes in a name come on top.
UniProt Q96PU8: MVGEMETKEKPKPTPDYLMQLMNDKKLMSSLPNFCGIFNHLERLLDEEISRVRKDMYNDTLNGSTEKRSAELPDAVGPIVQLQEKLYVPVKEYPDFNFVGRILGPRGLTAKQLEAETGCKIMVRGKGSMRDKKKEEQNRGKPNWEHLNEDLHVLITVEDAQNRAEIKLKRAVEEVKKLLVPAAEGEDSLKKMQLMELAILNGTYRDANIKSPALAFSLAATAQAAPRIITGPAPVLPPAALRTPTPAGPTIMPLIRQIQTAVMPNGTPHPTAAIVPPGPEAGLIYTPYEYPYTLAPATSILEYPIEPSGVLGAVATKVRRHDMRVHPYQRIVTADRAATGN
UniProt Q96TA1: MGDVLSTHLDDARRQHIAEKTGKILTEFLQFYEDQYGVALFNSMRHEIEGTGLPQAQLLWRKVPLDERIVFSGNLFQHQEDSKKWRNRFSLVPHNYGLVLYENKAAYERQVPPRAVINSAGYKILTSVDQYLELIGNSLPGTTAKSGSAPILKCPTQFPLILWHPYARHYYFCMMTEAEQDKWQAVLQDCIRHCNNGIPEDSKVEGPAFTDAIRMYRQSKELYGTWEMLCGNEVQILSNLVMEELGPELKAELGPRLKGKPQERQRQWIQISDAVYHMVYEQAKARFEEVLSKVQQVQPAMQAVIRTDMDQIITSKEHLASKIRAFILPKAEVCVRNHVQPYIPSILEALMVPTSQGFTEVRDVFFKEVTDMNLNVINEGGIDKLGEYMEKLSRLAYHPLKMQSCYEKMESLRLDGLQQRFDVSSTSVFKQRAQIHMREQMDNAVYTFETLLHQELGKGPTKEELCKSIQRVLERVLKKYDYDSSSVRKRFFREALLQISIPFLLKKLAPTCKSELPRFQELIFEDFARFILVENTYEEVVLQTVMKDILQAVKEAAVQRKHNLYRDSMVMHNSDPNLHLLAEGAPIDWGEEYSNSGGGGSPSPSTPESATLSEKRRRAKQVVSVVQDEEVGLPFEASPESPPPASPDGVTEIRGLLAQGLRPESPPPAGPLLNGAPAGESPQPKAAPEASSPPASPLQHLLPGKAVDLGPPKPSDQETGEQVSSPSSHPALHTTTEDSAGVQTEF
UniProt Q99704: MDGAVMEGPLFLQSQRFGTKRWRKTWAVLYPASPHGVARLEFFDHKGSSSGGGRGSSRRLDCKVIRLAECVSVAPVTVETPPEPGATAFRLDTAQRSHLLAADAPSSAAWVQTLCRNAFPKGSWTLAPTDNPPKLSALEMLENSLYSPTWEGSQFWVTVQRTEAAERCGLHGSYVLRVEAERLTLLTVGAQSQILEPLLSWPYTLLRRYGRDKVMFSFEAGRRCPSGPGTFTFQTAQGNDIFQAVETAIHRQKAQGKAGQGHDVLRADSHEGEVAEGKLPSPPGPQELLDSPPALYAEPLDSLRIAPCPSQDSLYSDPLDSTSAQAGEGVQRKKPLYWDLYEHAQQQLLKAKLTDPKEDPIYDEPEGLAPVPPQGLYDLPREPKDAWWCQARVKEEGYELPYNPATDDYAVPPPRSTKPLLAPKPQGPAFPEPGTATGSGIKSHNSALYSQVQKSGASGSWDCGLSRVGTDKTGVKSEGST
UniProt Q96J02: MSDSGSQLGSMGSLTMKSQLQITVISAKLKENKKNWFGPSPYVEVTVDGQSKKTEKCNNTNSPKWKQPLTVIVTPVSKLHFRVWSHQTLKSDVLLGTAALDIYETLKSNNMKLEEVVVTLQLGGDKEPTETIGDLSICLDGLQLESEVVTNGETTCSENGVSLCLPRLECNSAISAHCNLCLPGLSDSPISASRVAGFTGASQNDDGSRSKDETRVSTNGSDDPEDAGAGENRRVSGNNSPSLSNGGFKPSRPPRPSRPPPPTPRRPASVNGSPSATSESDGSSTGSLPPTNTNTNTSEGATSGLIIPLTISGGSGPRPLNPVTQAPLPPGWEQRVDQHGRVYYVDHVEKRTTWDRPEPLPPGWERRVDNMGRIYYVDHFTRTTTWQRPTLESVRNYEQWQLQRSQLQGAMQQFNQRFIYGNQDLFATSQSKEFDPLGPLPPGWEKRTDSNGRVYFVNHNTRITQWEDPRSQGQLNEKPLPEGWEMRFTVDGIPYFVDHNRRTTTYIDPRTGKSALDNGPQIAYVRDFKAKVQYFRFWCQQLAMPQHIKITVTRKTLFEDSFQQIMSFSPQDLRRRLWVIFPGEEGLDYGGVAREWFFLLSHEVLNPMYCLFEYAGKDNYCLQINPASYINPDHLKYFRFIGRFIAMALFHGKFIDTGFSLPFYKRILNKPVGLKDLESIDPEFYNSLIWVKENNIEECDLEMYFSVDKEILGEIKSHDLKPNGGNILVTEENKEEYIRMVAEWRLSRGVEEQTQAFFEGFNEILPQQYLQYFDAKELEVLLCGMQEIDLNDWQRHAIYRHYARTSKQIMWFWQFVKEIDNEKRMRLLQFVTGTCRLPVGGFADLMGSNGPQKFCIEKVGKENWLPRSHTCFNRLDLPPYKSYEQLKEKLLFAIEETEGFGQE
UniProt Q96HN2, whole entry: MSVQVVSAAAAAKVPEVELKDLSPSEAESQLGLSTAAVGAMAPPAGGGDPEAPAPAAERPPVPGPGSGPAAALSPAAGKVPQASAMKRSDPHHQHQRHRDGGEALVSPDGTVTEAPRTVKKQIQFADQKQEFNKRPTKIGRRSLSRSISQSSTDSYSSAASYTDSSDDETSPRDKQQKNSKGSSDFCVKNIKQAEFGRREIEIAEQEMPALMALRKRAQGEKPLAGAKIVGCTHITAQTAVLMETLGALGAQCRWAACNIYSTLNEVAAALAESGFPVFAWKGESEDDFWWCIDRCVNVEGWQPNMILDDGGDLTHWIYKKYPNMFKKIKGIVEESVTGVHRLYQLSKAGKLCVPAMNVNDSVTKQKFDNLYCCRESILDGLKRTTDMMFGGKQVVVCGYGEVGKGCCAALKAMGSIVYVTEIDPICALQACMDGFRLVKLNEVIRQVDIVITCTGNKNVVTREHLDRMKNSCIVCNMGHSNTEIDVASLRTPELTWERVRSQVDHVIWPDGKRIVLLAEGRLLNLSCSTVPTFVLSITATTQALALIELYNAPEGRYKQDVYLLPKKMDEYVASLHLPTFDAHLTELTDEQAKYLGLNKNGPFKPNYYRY
UniProt Q96SU4: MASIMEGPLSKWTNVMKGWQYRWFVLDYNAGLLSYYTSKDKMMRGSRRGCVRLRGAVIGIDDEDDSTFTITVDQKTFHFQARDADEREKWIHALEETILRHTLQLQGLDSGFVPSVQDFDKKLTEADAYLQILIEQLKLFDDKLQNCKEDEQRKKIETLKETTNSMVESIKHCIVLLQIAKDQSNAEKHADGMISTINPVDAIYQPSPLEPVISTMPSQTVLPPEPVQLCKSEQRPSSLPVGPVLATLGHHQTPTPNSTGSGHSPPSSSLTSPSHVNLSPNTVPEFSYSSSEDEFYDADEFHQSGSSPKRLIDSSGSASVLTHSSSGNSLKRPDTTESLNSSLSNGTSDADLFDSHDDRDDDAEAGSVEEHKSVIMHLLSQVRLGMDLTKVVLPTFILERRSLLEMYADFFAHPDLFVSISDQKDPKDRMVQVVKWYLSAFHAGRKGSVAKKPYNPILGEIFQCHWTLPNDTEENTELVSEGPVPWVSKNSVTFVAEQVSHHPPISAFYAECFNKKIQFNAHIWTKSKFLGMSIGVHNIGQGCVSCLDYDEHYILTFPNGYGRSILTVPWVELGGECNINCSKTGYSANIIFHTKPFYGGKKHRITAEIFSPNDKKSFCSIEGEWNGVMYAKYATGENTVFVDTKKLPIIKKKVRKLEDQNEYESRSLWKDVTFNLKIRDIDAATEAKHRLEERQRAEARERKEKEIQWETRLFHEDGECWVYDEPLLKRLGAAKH
UniProt Q99614: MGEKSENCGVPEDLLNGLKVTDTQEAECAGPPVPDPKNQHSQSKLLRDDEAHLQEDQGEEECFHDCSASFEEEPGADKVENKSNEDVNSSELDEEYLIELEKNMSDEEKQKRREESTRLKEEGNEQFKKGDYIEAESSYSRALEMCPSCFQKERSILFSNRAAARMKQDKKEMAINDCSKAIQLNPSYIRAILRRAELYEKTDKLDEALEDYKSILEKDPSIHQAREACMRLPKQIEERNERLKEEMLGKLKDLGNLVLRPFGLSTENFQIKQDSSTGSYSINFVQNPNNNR
UniProt Q99436: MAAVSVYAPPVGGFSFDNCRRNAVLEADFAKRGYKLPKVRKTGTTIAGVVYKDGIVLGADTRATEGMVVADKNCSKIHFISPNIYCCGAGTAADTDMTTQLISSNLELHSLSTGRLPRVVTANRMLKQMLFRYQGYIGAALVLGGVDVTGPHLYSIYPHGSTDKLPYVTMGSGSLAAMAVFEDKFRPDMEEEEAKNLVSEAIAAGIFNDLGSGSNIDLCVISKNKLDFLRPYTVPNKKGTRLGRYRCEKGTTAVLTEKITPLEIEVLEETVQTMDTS
UniProt Q96RU3: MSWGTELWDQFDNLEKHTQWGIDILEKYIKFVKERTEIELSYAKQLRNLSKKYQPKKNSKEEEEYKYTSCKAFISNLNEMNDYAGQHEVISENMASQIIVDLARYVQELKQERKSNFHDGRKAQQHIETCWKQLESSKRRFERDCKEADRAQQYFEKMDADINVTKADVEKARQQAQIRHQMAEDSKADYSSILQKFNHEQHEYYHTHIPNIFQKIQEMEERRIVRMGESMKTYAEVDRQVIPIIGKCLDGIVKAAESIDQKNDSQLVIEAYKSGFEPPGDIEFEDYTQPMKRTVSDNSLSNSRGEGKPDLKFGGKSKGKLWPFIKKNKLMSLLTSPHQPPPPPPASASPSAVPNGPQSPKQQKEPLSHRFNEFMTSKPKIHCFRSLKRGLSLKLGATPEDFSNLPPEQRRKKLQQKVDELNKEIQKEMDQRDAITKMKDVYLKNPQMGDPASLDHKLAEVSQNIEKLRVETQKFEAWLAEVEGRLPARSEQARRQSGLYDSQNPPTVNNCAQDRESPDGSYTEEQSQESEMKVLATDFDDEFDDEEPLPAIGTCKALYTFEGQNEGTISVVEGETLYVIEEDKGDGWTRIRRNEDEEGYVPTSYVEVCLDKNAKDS
UniProt Q99829: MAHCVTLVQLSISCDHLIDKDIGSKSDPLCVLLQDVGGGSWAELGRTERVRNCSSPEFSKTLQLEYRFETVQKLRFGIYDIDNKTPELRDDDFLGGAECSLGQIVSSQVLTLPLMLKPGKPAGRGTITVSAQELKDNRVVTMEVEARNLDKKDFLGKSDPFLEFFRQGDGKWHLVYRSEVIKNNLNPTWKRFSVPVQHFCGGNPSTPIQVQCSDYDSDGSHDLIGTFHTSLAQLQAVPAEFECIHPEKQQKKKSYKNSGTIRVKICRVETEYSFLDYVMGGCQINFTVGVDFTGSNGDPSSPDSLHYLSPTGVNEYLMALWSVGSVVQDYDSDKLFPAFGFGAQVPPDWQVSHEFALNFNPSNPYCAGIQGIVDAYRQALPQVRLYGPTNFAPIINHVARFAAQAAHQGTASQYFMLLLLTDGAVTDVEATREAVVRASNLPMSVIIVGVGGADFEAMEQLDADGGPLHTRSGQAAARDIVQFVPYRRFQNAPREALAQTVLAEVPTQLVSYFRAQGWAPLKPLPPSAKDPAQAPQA
UniProt Q99832: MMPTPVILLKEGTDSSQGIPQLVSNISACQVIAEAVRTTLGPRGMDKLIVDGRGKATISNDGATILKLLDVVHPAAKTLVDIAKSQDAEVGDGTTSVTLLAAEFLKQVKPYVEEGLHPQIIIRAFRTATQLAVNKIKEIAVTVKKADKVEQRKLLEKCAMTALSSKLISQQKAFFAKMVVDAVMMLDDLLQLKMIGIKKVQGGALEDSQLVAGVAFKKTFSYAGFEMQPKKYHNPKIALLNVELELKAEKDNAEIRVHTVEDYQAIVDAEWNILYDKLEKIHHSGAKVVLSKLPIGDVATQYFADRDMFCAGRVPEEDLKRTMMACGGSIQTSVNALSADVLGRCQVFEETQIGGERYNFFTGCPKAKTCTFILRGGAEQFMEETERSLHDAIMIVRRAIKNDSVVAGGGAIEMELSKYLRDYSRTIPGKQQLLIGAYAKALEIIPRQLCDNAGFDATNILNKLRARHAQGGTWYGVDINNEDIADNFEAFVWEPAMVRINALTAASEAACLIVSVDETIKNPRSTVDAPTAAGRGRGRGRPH

Only a part is listed here, and it is no random draw.

Compound in the assay: COC(=O)C#Cc1ccccc1 [methyl 3-phenylpropiolate]
Briefly: log2 ratio of iodoacetamide-alkyne labeling of the cysteine site, DMSO over compound (competition); higher = stronger covalent engagement of the cysteine by the compound, active = 1 or more. As to conditions: 500 µM; treatment time 1 h; system: HEK293T cell lysate. The method, boiled down:
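Three replicates, each with duplicate channels, were prepared from HEK293T lysate (2 mg/mL) treated with vehicle or electrophile at 500 µM for 1 h at ambient temperature. Iodoacetamide alkyne was then applied for 1 h, and samples were clicked to sCIP-TMT reagents, pooled, trypsin-digested overnight at 37 °C, enriched on streptavidin, acid-eluted and analysed on Orbitrap Eclipse LC-MS/MS with FAIMS, with FragPipe quantification. The log2 competition ratio per cysteine is the mean control-channel divided by the mean compound-channel reporter intensity. Cysteines quantified in only one replicate were left out.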
For the target UniProt Q96PU8_C35, the “log2 ratio of iodoacetamide-alkyne labeling” value (shortened to “log2 ratio”) was inactive: 0.362. Take SMG1 C2304 (UniProt Q96Q15): the “log2 ratio” value was inactive: -0.0684.

As for UniProt Q96TA1_C154, the “log2 ratio” value was inactive: 0.644. Take MYBBP1A C1009 (UniProt Q9BQG0): the “log2 ratio” value was inactive: -0.00668.

For MYBBP1A C305 (UniProt Q9BQG0), the “log2 ratio” value was inactive: 0.0664.

Consider DOK1 C115 (UniProt Q99704), for which the “log2 ratio” value is inactive: 0.357. Under ITCH C871 (UniProt Q96J02) stands inactive: 0.185; under SNX27 C30 (UniProt Q96L92), inactive: 0.774.

For AHCYL2 C353 (UniProt Q96HN2), the “log2 ratio” value is active: 1.13.

On to OSBPL9 C619 (UniProt Q96SU4), for which the “log2 ratio” value is inactive: 0.124. Under TTC1 C66 (UniProt Q99614) stands inactive: 0.54; under PSMB7 C86 (UniProt Q99436), inactive: 0.264; under FNBP1 C130 (UniProt Q96RU3), inactive: 0.489. With CPNE1 C53 (UniProt Q99829), the “log2 ratio” value was inactive: -0.0731. In the case of CCT7 C310 (UniProt Q99832) it was inactive: 0.193.
